PubChem BioAssay AID1259254, NCATS – 2017

Aim: 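Genome-wide screen for genes that prevent DNA re-replication in cancer cells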 (primary screen)
Cell system: human HCT116 colorectal cancer cells
Reagents: single siRNA against human genes
Time to read-out: 3 days
Detection: 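Nuclei stained with Hoechst and imaged; cell-cycle phase assigned by DNA content; G2 share scaled per plate, non-targeting siRNA 0%, GMNN siRNA 100%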
Reading the numbers: G2 robust z-score and G2 cells, % of GMNN control: higher = more G2 cells, more excess DNA replication; raw share of cells in G2: higher = larger share of cells with G2 DNA content
Call rule: 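An siRNA counts as active if its G2 robust z-score lies at least 5 MADs above the screen median; here such calls match roughly 38% of GMNN control or more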
Shown is one part, drawn at random, of about 59,000 reagents. Over the whole deposit, about 1,550 (2.6%) are marked active. 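G2 share is only a proxy for re-replication; each gene was hit by three separate siRNAs, and active genes were retested.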 Raw values are not corrected between plates. Unmarked entries are inactive. Reagent sequences are not shown. Not stated in the record: the amount of reagent.

no.	gene	PubChem SID	G2 robust z-score	G2 cells, % of GMNN control	raw share of cells in G2 (%)
1	TTC17 (tetratricopeptide repeat domain 17)	SID160733623	0.992	9.95	6.31
2	TTC17 (tetratricopeptide repeat domain 17)	SID160744294	-0.0467	2.64	5.54
3	TTC17 (tetratricopeptide repeat domain 17)	SID160744295	0.995	9.97	8.27
4	HMBS (hydroxymethylbilane synthase)	SID160775041	0.266	4.84	5.98
5	HMBS (hydroxymethylbilane synthase)	SID160775042	0.0578	3.37	6.97
6	HMBS (hydroxymethylbilane synthase)	SID160775043	5.77 (active)	43.5	20.9
7	GCFC2 (GC-rich sequence DNA-binding factor 2)	SID160717809	1.54	13.8	11.2
8	GCFC2 (GC-rich sequence DNA-binding factor 2)	SID160717810	-0.653	-1.63	3.25
9	GCFC2 (GC-rich sequence DNA-binding factor 2)	SID160717811	-0.478	-0.393	3.21
10	MRGPRG-AS1 (MRGPRG antisense RNA 1)	SID160762855	0.154	4.05	5.12
11	MRGPRG-AS1 (MRGPRG antisense RNA 1)	SID160762856	-0.497	-0.527	2.84
12	MRGPRG-AS1 (MRGPRG antisense RNA 1)	SID160762857	0.943	9.6	6.19
13	SNX25 (sorting nexin 25)	SID160751505	1.02	10.1	8.54
14	SNX25 (sorting nexin 25)	SID160751506	0.0951	3.64	6.94
15	SNX25 (sorting nexin 25)	SID160751507	0.364	5.53	6.2
16	ZFYVE1 (zinc finger FYVE-type containing 1)	SID160741408	-0.431	-0.0675	2.77
17	ZFYVE1 (zinc finger FYVE-type containing 1)	SID160741409	1.92	16.5	13.4
18	ZFYVE1 (zinc finger FYVE-type containing 1)	SID160741410	1.57	14	8.03
19	FUT9 (fucosyltransferase 9)	SID160729049	-0.704	-1.98	3.2
20	FUT9 (fucosyltransferase 9)	SID160729050	-0.294	0.902	6.09
21	FUT9 (fucosyltransferase 9)	SID160729051	-0.646	-1.58	5.86
22	FBXW2 (F-box and WD repeat domain containing 2)	SID160737754	1.19	11.4	8.69
23	FBXW2 (F-box and WD repeat domain containing 2)	SID160737755	-0.586	-1.15	3.44
24	FBXW2 (F-box and WD repeat domain containing 2)	SID160737756	0.161	4.1	4.73
25	OR13D1 (olfactory receptor family 13 subfamily D member 1)	SID160763839	-0.632	-1.48	3.1
26	OR13D1 (olfactory receptor family 13 subfamily D member 1)	SID160763840	0.227	4.57	4.81
27	OR13D1 (olfactory receptor family 13 subfamily D member 1)	SID160763841	0.971	9.8	6.24
28	BRK1 (BRICK1 subunit of SCAR/WAVE actin nucleating complex)	SID160744504	-0.874	-3.18	3.3
29	BRK1 (BRICK1 subunit of SCAR/WAVE actin nucleating complex)	SID160744505	-0.36	0.437	4.32
30	BRK1 (BRICK1 subunit of SCAR/WAVE actin nucleating complex)	SID160744506	1.17	11.2	6.71
31	BNIP5 (BCL2 interacting protein 5)	SID160766185	-0.785	-2.55	2.9
32	BNIP5 (BCL2 interacting protein 5)	SID160766186	1.32	12.3	8.74
33	BNIP5 (BCL2 interacting protein 5)	SID160766187	-1.1	-4.79	2.58
34	KLC4 (kinesin light chain 4)	SID160753522	0.235	4.62	7.82
35	KLC4 (kinesin light chain 4)	SID160753523	1.01	10.1	9.28
36	KLC4 (kinesin light chain 4)	SID160753524	2.92	23.5	13.4
37	THRB (thyroid hormone receptor beta)	SID160718052	-0.248	1.22	6.09
38	THRB (thyroid hormone receptor beta)	SID160718054	0.496	6.46	6.76
39	THRB (thyroid hormone receptor beta)	SID160718055	-0.846	-2.99	2.97
40	AURKC (aurora kinase C)	SID160717491	-0.666	-1.72	5.04
41	AURKC (aurora kinase C)	SID160717492	0.147	4	6.76
42	AURKC (aurora kinase C)	SID160717493	-0.679	-1.81	3.39
43	NAT1 (N-acetyltransferase 1)	SID160776659	-0.489	-0.471	4.56
44	NAT1 (N-acetyltransferase 1)	SID160776669	0.944	9.61	8.49
45	NAT1 (N-acetyltransferase 1)	SID160776678	0.113	3.76	5.39
46	ANKAR (ankyrin and armadillo repeat containing)	SID160759009	0.263	4.82	5.44
47	ANKAR (ankyrin and armadillo repeat containing)	SID160759010	0.497	6.46	4.91
48	ANKAR (ankyrin and armadillo repeat containing)	SID160759011	-0.344	0.546	3.26
49	OR7G2 (olfactory receptor family 7 subfamily G member 2)	SID160766586	-1.09	-4.71	2.1
50	OR7G2 (olfactory receptor family 7 subfamily G member 2)	SID160766587	1.03	10.2	7.58
51	OR7G2 (olfactory receptor family 7 subfamily G member 2)	SID160766588	-0.178	1.71	5.5
52	BTBD19 (BTB domain containing 19)	SID160758835	-0.748	-2.29	3.06
53	BTBD19 (BTB domain containing 19)	SID160758836	-0.0364	2.71	3.75
54	BTBD19 (BTB domain containing 19)	SID160758837	0.426	5.96	5.15
55	PHOX2B (paired like homeobox 2B)	SID160721157	0.86	9.01	9.13
56	PHOX2B (paired like homeobox 2B)	SID160721158	0.447	6.11	6.32
57	PHOX2B (paired like homeobox 2B)	SID160721159	2.62	21.4	10.9
58	STX10 (syntaxin 10)	SID160720586	8.31 (active)	61.4	33.3
59	STX10 (syntaxin 10)	SID160720587	-0.273	1.05	3.78
60	STX10 (syntaxin 10)	SID160732085	-0.324	0.69	3.76
61	KIRREL3 (kirre like nephrin family adhesion molecule 3)	SID160752457	-0.711	-2.03	4.03
62	KIRREL3 (kirre like nephrin family adhesion molecule 3)	SID160752458	-0.949	-3.71	2.85
63	KIRREL3 (kirre like nephrin family adhesion molecule 3)	SID160752459	1.23	11.6	10.3
64	ELAVL2 (ELAV like RNA binding protein 2)	SID160759618	0.557	6.88	7.74
65	ELAVL2 (ELAV like RNA binding protein 2)	SID160759629	1.68	14.8	10.9
66	ELAVL2 (ELAV like RNA binding protein 2)	SID160759639	-1.03	-4.27	2.14
67	AZGP1 (alpha-2-glycoprotein 1, zinc-binding)	SID160722626	-0.736	-2.21	4.26
68	AZGP1 (alpha-2-glycoprotein 1, zinc-binding)	SID160722636	2.16	18.2	10.8
69	AZGP1 (alpha-2-glycoprotein 1, zinc-binding)	SID160722648	4.32	33.3	16.6

Part of the list above, showing only “G2 cells, % of GMNN control”:
ZFYVE1 (zinc finger FYVE-type containing 1) [SID160741410]: 14
FUT9 (fucosyltransferase 9) [SID160729049]: -1.98
FUT9 (fucosyltransferase 9) [SID160729050]: 0.902
FUT9 (fucosyltransferase 9) [SID160729051]: -1.58
FBXW2 (F-box and WD repeat domain containing 2) [SID160737754]: 11.4
FBXW2 (F-box and WD repeat domain containing 2) [SID160737755]: -1.15
